{
  "source": "patent US12502414B2",
  "about": "“Second generation Seneca Valley virus oncolytic therapy: compositions and methods thereof” (SENECA THERAPEUTICS, INC., priority 2019, dated 2025)",
  "test_system": "SVV replication in Per.C6 cells",
  "assay": "SVV replication in Per.C6 cells with or without IFN-α pretreatment, virus yield by plaque assay",
  "type": "cell-based, human",
  "conditions": "Per.C6 cells pretreated with 500 units IFN-α, SVV MOI 1, 300 nM SSP added at time 0, 24 h post infection",
  "description": "FIG. 1 is a histogram depicting the inhibition of SVV replication by IFN-α. Per.C6 cells were pretreated with 500 units IFN-α before infection with SVV at MOI=1. Virus yields were determined by plaque assay 24 h post infection. The results are representative of 3 independent experiments.\nFIGS. 2A-2B are series of histogram depicting the effect of staurosporine on SVV replication. FIG. 2A. SVV replication in HeLa cells can be enhanced with staurosporine (SSP). FIG. 2B. Inhibition of SVV replication by IFN-α can be reversed with SSP in Per.C6 cells. TEM 8+ HeLa cells or Per.C6 cells were pretreated with 500 units IFN-α before infection with SVV at MOI 1. 300 nM SSP was added at time 0. Virus yields determined by plaque assay 24 h post infection. Results are representative of three independent experiments.\nFIGS. 3A-3B are series of histogram depicting the effect of Trichostatin A on SVV replication. FIG. 3A. SVV replication in HeLa cells can be enhanced with Trichostatin A. FIG. 3B. […] Virus yields determined by plaque assay 24 h post infection. […]\nFIGS. 4A-4B are series of histogram depicting the effect of Torin 2 A on SVV replication. […] Virus yields determined by plaque assay 24 h post infection. […]\nVirus infections. […] Cells were counted at the time of infection and viral stocks were diluted in PBS+0.01% BSA (Sigma, St. Louis, MO) for infections at the appropriate MOI. […]",
  "data": [
    {"smiles": "CN[C@@H]1C[C@H]2O[C@@](C)([C@@H]1OC)n1c3ccccc3c3c4c(c5c6ccccc6n2c5c31)C(=O)NC4", "note": "[staurosporine]", "values": [
      {"measurement": "effect on inhibition of SVV replication by IFN-α", "result": "reversed the inhibitory effect of IFN-α on SVV replication"}
    ]}
  ]
}
